# According to PubChem BioAssay AID624297 (National Center for Advancing Translational Sciences (NCATS), 2012):
# The whole screen tested about 340,000 compounds, of which about 6,200 (1.8%) were called active. Inconclusive means that the source gave no clear call. Such entries were picked first, then a sample of the others. Calls follow the shape of the dose curve; as a rule, active = well fitted activation curve with a large enough effect; inconclusive = small, poorly fitted or top-dose-only effect; inactive = no such curve, though single readings can be large or run the other way. A potency beside an inconclusive call is a rough fit, not a confirmed value.
# Test: A quantitative high throughput screen for small molecules that induce DNA re-replication in SW480 colon adenocarcinoma cells. Also: nearly all actives have a fitted effect of over 55% in size. As to re-replication activation: % of control where 0% means no effect.
# Conditions: Hoechst DNA content imaging, 48 h; re-replication activation: at 46.1 µM (top of the series) unless noted
# Method in brief: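 Cells (250 per well) received 23 nL compound or DMSO by pin tool and were kept 48 hr at 37 C, 5% CO2. Nuclei were then stained with Hoechst for 40 min and scanned for DNA content.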
# Potency is read from the fitted curve at half-maximal effect.
Structure (SMILES),Potency,re-replication activation
Cc1ccc(C)c(C(=O)CSc2n[nH]c(C)n2)c1,"inconclusive: 16.4 µM [activator, partial curve, poor fit]",–
CC(=O)c1sc2nc(-c3cccs3)cc(C(F)(F)F)c2c1N,inactive,–
CC(=O)C1=C(O)C(=O)N(CCCCCC(=O)O)C1c1ccc(N(C)C)cc1 (stereo not drawn),"inconclusive: 29.1 µM [activator, single point]",–
c1coc(-c2nnc(-c3ccco3)nn2)c1,active: 3.98 µM,–
C/C(=N/NC(=O)c1ccc(Cl)s1)c1ccc(NC(=O)COc2ccc(Cl)cc2)cc1,"inconclusive: 4.61 µM [activator, full curve]",–
CC(=O)c1cc(-c2ccccc2)[nH]c1N1CCOCC1,"inconclusive: 29.1 µM [activator, single point]",–
COC(=O)C1=CN(C(C)c2ccccc2)C=C(C(=O)OC)C1c1cc(OC)c(OC)c(OC)c1 (stereo not drawn),active: 20.6 µM,–
Cc1ccc(SCC(=O)Nc2cc(S(=O)(=O)N3CCCCC3)ccc2C)cc1,inactive,–
CC(=O)C1=NN(c2ccccc2)C2(S1)S/C(=C\c1ccccc1)C(=O)N2c1ccccc1 (stereo not drawn),active: 5.17 µM,–
Cc1nn(-c2ccccc2)c2sc(C(=O)N(CC(=O)NC3CCCC3)Cc3ccco3)cc12,"inconclusive: 11.6 µM [activator, partial curve, poor fit]",–
CCn1cc(C(=O)NC2CC(C)(C)Cc3c2cnn3-c2cccc(F)c2)cn1 (stereo not drawn),inactive,–
Cc1ccc(-n2nnnc2SCCNS(=O)(=O)c2ccccc2)cc1C,inactive,–
CCCCc1ccc(NC(=O)CN(C)CC(=O)Nc2ccccc2Cl)cc1,"inconclusive: 16.4 µM [activator, single point]",–
Fc1ccc(CSc2ncnc3ccccc23)cc1,"inconclusive: 2.91 µM [activator, full curve, poor fit]",–
COc1ccccc1-c1nc(C#N)c(N2CCCCCC2)o1,inactive,–
CCOc1ccc(NC(=S)NS(=O)(=O)c2cc(Br)ccc2OCC)cc1,"inconclusive: 3.26 µM [activator, single point]",–
CCc1cccc(OCC(=O)Nc2cc(Cl)ccc2-n2cncn2)c1,active: 4.61 µM,–
Clc1nc(Nc2ccccc2)nc(Nc2ccccc2)n1,inactive,–
COc1ccnc(CSC(N)=Nc2ccccc2OC)c1,"inconclusive: 31.6 µM [activator, single point]",–
O=[N+]([O-])c1cc(S(=O)(=O)Oc2ccccc2)ccc1Cl,active: 3.26 µM,–
Cc1cccc(C2c3[nH]c4ccccc4c3CCN2C(=O)c2cc(CC(C)C)[nH]c(=O)n2)n1 (stereo not drawn),inactive,–
CCOC(=O)n1c(=O)n(Cc2ccc(Cl)cc2Cl)c2ccccc21,inactive,–
COc1ccc(CC(=O)OC(C)C(=O)c2ccc(C)cc2)cc1 (stereo not drawn),inactive,–
O=C(OCc1ccc([N+](=O)[O-])cc1)c1cc([N+](=O)[O-])ccc1N1CCOCC1,"inconclusive: 20.6 µM [activator, single point]",–

Structure (SMILES),Potency,re-replication activation
COC(=O)c1sccc1NC(=O)c1ccoc1C,"inconclusive: 20.6 µM [activator, single point]",–
COc1ccc(NC(=O)C(=O)c2cn(CC(=O)N3CCCC3)c3ccccc23)cc1OC,"inconclusive: 20.6 µM [activator, single point]",–
Cc1ccc(CNC(=O)CCCc2ccccc2)cc1,inactive,–
COc1ccc(NS(=O)(=O)c2cc(NC(=O)c3ccc(=O)[nH]c3)ccc2N2CCCC2)cc1,"inconclusive: 6.51 µM [activator, partial curve, poor fit]",–
N#CCn1c2ccccc2c2nc3ccccc3nc21,"inconclusive: 23.1 µM [activator, single point]",–
CCOc1ccc(NS(=O)(=O)c2ccc(C(=O)NCC3(N4CCCCC4)CCCCC3)cc2)cc1,"inconclusive: 29.1 µM [activator, single point]",–
Cc1nn(CCC(=O)NNC(=S)Nc2cccc(Cl)c2)c(C)c1[N+](=O)[O-],inactive,–
CC(=O)Cn1c(N2CCC(Cc3ccccc3)CC2)nc2c1c(=O)[nH]c(=O)n2C,inactive,–
Cc1c(Cl)cccc1N=Cc1ccc([N+](=O)[O-])s1,"inconclusive: 20.6 µM [activator, single point]",–
COc1ccc(C)cc1NC(=O)c1ccccc1N(C)S(=O)(=O)c1ccccc1,"inconclusive: 0.0041 µM [activator, full curve, poor fit]",–
O=C(c1ccco1)N(Cc1ccc2c(c1)OCO2)Cc1cc2cc3c(cc2[nH]c1=O)OCO3,"inconclusive: 16.4 µM [activator, partial curve, poor fit]",–
c1ccc(-c2nc(N3CCCC3)nc3ccccc23)cc1,active: 18.4 µM,–
Cc1ccsc1C(=O)Nc1ccc(OCc2ccccc2)cc1,inactive,–
CC1(C(=O)O)COC(c2ccc(Cl)cc2)OC1 (stereo not drawn),"inconclusive: 29.1 µM [activator, single point]",–
COc1cc2c(cc1OC)C(C(C(=O)N(CCc1ccc(OC)c(OC)c1OC)CCc1ccc(OC)c(OC)c1OC)c1ccccc1)=NCC2 (stereo not drawn),inactive,–
COc1ccc(-n2c(-c3cccc(OC)c3)nc(=S)c3c2CCCC3)cc1,"inconclusive: 20.6 µM [activator, single point]",–
O=C(COC(=O)c1ccc2[nH]c3c(c2c1)CCCC3)Nc1ccccc1,"inconclusive: 29.1 µM [activator, single point]",–
COc1ccc(CCN2CC(C(=O)OCC(=O)NCc3ccccc3Cl)CC2=O)cc1OC (stereo not drawn),inactive,–
CCCCCn1c(=O)[nH]c2cc(C(=O)NCCN3C(C)CCCC3C)ccc2c1=O (stereo not drawn),"inconclusive: 29.1 µM [activator, single point]",–
CC(=O)Nc1ccc2nc(SCC(=O)N3CCOCC3)sc2c1,inactive,–
CC(=O)Nc1cccc(C(=O)/C=C/c2ccc(N(C)C)cc2)c1,"inconclusive: 32.6 µM [activator, partial curve, poor fit]",–
Oc1ccccc1C1=NOC(O)(C(F)F)C1 (stereo not drawn),"inconclusive: 23.1 µM [activator, partial curve, poor fit]",–
Cc1ccc(S(=O)(=O)Nc2ccccc2-c2ccccc2)cc1,active: 0.82 µM,–
Cn1nc(C(F)(F)F)c(CNC(=O)C(C)(C)CCl)c1N1CCOCC1,"inconclusive: 29.1 µM [activator, single point]",–
CCCCC1C(=O)N(c2ccccc2)N(c2ccc(O)cc2)C1=O (stereo not drawn),"inconclusive: 3.16 µM [activator, partial curve, poor fit]",–

Structure (SMILES),Potency,re-replication activation
Cc1ccc(C)c(S(=O)(=O)N2CCN(CC(=O)NC(C)c3ccccc3)CC2)c1 (stereo not drawn),inactive,–
COc1ccc(OC)c(NC(=O)C2CCN(Cc3cnn(-c4ccccc4)c3-n3cccc3)CC2)c1,"inconclusive: 11.6 µM [activator, partial curve, poor fit]",–
CCN(CC)S(=O)(=O)c1ccc(C(=O)Nc2nnc(-c3ccco3)o2)cc1,"inconclusive: 18.4 µM [activator, single point]",–
COc1ccc(C(=O)Cn2c(C)nc([N+](=O)[O-])c2Br)cc1,inactive,–
N#CC(CO)(Cc1ccc(OC(F)F)cc1)c1nc2ccccc2[nH]1 (stereo not drawn),"inconclusive: 1.64 µM [activator, full curve, poor fit]",–
Cc1nc2cc(C)c(C)cc2s1,inactive,–
CN1CCc2c(sc(N)c2C(N)=O)C1,inactive,–
COc1ccccc1C(=O)C1CCCN(Cc2cccc(OCCO)c2)C1 (stereo not drawn),–,inconclusive: 41.1% [activator]
COCC(C)n1c(=O)sc2ccccc2c1=O (stereo not drawn),"inconclusive: 0.517 µM [activator, partial curve, poor fit]",–
CC(C)C(C(=O)NC1CCCCC1)N(CC1CCCO1)C(=O)CNS(=O)(=O)c1ccc(F)cc1 (stereo not drawn),"inconclusive: 16.4 µM [activator, partial curve, poor fit]",–
Cc1ccc(-n2nnnc2CNC(=O)c2ccc([N+](=O)[O-])o2)cc1C,active: 13 µM,–
COc1cc(/C=N\NC(=O)CC#N)ccc1OC/C=C/c1ccccc1,"inconclusive: 20.6 µM [activator, single point]",–
COc1ccc(Nc2nc(NC(C)(C)C)nc(N3CCCC3)n2)c(OC)c1,"inconclusive: 20.6 µM [activator, single point]",–
CN(C)S(=O)(=O)c1ccc(Cl)c(NC(=O)CSc2nc3c(cc2C#N)C(=O)CC(C)(C)C3)c1,"inconclusive: 18.4 µM [activator, partial curve, poor fit]",–
Cc1nc2c(ccc3nc(NC(=O)c4ccc5c(c4)OCCO5)sc32)s1,"inconclusive: 14.6 µM [activator, partial curve, poor fit]",–
CCN(CC)C(=N)/C(C#N)=N/Nc1ccc(C)cc1,inactive,–
COc1ccc(/C=C/C(=O)O)cc1S(=O)(=O)NCc1cccnc1,inactive,–
CC(=O)Nc1ccc2cc3ccc(NC(C)=O)cc3nc2c1,inactive,–
CCCn1c2ccc(C)cc2c2nnc(SCCN3CCCCC3)nc21,"inconclusive: 29.1 µM [activator, single point]",–
CC1(C)Cc2c(sc3nnn(CC(=O)Nc4ccccc4)c(=O)c23)CO1,inactive,–
O=[N+]([O-])c1ccc(C2NS(=O)(=O)N=C3CCCCCN32)cc1 (stereo not drawn),"inconclusive: 29.1 µM [activator, single point]",–
O=C(/C=C/c1ccccc1)c1ccoc1,"inconclusive: 29.1 µM [activator, single point]",–
CC(C)N(C(=O)CSc1nc(Cc2ccccc2)nc2ccccc12)C(C)C,"inconclusive: 7.31 µM [activator, partial curve]",–

# A different layout for two compounds above:
Structure (SMILES) | Potency | re-replication activation
COCC(C)n1c(=O)sc2ccccc2c1=O (stereo not drawn) | inconclusive: 0.517 µM [activator, partial curve, poor fit] | –
Cc1ccc(-n2nnnc2CNC(=O)c2ccc([N+](=O)[O-])o2)cc1C | active: 13 µM | –
